From the supplement of paper PMC6609913 come the findings set out here.

Counter-ions that a name gives are not always drawn. ± gives the standard deviation of the averaged measurements. The lowest values were mostly taken out for another list; the other results follow.

For experiment [1], the system named is V-C8 (BRCA2-deficient hamster cells). The experiment in a line: normalised cell viability (fraction of plate median); higher = more viable cells (less toxic). To be noted: 5 µM. In outline: (§1)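 Library drugs, held as 10 mM stocks in DMSO, were diluted to 5 μM in 100 μl medium and added to 96-well plates of V-C8 hamster cells, either lacking BRCA2 or with BRCA2 restored, 24 h after seeding. Plates ran for 3 days (screen 1) or 6 days (screen 2), alongside solvent-only wells. Viability came from a resazurin readout, median-plate normalised, as the mean of triplicate wells.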

For experiment [2], the system named is V-C8 + BRCA2 (BRCA2-proficient hamster cells). The experiment is described as above. To be noted: 5 µM. The gist of the method: as §1

In the case of `CN1[C@@H]2CC[C@H]1C[C@@H](OC(=O)C(O)c1ccccc1)C2` (mixture of isomers) [Homatropine hydrobromide (R,S)], the normalised cell viability amounted to 1.06 ± 0.026 in experiment [1] (treatment time: 3 days), 1.01 ± 0.013 in experiment [1] (treatment time: 6 days), 1.04 ± 0.044 in experiment [2] (treatment time: 3 days) and 1.04 ± 0.012 in experiment [2] (treatment time: 6 days).
